Laboratory results from PubChem BioAssay AID2417 (National Center for Advancing Translational Sciences (NCATS), 2010).
About 4,300 (3.1%) of roughly 140,000 compounds were called active. The shares of active, inactive and inconclusive entries below differ from those in the screen.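 The calls were made as follows: active = readout at or below -70, meaning at least 70% loss of cells showing the perinucleolar compartment, a nuclear body marking cancer cells; inconclusive = readout between -30 and a set limit; inactive = the rest.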

assay: High Content Assay for Compounds that inhibit the Assembly of the Perinucleolar Compartment; settings: PC3M PTB-GFP, PNC prevalence imaging, 16 h; at 10 µM; stronger effect = lower value;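 also: plate controls were DMSO wells for no effect and camptothecin positive control wells for full effect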
Method in brief: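 Read-out is percentage of cells bearing a perinucleolar compartment, from automated 20x imaging of fixed, Hoechst-stained PC3M PTB-GFP cells. Cells were seeded 4 h, then exposed 16 h to compound (23 nl of library stock) in duplicate plates.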

Row | SMILES | activity change (PNC), negative = inhibition
1 | COc1ccc(/C=c2/sc3n(c2=O)NC2(c4ccccc4)N(C)C(=O)N(C)C2(c2ccccc2)N=3)cc1 (stereo unspecified) | inconclusive: -60.4%
2 | CCOc1ccccc1-n1c(SCC(=O)N(CC)CC)nnc1-c1ccccn1 | inconclusive: -55.4%
3 | CC(C)COC(=O)c1ccc2c(c1O)C(=O)c1ccccc1C2=O | inconclusive: -31.4%
4 | Cc1ccc(-c2ccc(SCC(=O)N3CCc4ccccc43)nn2)cc1 | active: -83.4%
5 | CCOC(=O)N1CCN(C(=O)c2ccccc2N(C)S(C)(=O)=O)CC1 | inconclusive: -47.4%
6 | COc1ccccc1NC(=O)COC(=O)CNC(=O)c1ccc(OC)c(OC)c1 | inconclusive: -53.6%
7 | CCCc1nc(SCC(=O)Nc2cc(C)on2)c2ccccc2n1 | inactive: 17.5%
8 | COc1cccc(NC(=O)CCN2CCC(C(N)=O)CC2)c1 | inactive: 21.5%
9 | Cc1ccc(N2C(=O)C3ON(c4ccccc4)C(c4ccncc4)C3C2=O)cc1 (stereo unspecified) | inactive: -29.7%
10 | CCOC(=O)N1CCC(Nc2cccc(SC)c2)CC1 | inconclusive: -51.2%
11 | CC(=O)Nc1cccc(-c2nnc3n2CC(C)S3)c1 (stereo unspecified) | inconclusive: -53.5%
12 | O=C(CSC1=NC2(CCCCCC2)N=C1c1ccccc1)Nc1ccc2c(c1)OCCO2 | active: -119%
13 | Cn1c(NC(=O)C2CCCO2)cc(=O)n(C)c1=O (stereo unspecified) | inconclusive: -40.8%
14 | C=CCn1c(SCC(=O)c2ccc(Cl)s2)nc2ccccc2c1=O | inactive: 22.9%
15 | CCN(CC)Cc1c(O)ccc2c(-c3ccccc3)cc(=O)oc12 | active: -118%
16 | Cc1cc(C)nc(NC(=O)/C=C/c2ccccc2Cl)n1 | inactive: 14.8%
17 | S=c1[nH]cnc2scc(-c3ccccc3)c12 | inconclusive: -51.6%
18 | Cc1nn(CCC#N)c(NC(=O)c2ccc(Cl)cc2Cl)c1P(=O)(Nc1ccc([N+](=O)[O-])cc1)N1CCOCC1 (stereo unspecified) | inconclusive: -44.9%
19 | CCC(=O)Nc1cccc(NC(=O)CSc2nnnn2C2CCCC2)c1 | inconclusive: -49.5%
20 | COc1cc(NS(=O)(=O)c2ccc(OC)c(OC)c2)cc(OC)c1 | inconclusive: -72.9%
21 | O=[n+]1c2c(n([O-])c3ccccc31)CCCC2 | inconclusive: -32.7%
22 | CCOc1ccc2nc(SCC(=O)NC(=O)NCc3ccco3)[nH]c2c1 | inconclusive: -30.3%
23 | CCC(C)Nc1c2c(nc3c(-c4ccccc4)c(C)nn13)CCC2 (stereo unspecified) | inactive: 14.3%

Row | SMILES | activity change (PNC), negative = inhibition
24 | CCCOC(=O)C1C2C=CC3(CN(c4ccc(Cl)c(F)c4)C(=O)C13)O2 (stereo unspecified) | inconclusive: -42%
25 | CCOc1ccc(C(CC(=O)O)NC(=O)c2cccs2)cc1 (stereo unspecified) | inactive: 8.43%
26 | COc1cccc(-n2c(SCC(=O)NC3CCCCC3)nc3n[nH]c(C)c3c2=N)c1 | inconclusive: -45.3%
27 | Cc1ccccc1C(=NCCCN(C)C)c1ccccc1C | inconclusive: -43.5%
28 | COC(=O)c1ccc(C(=O)OC)c(NC(=S)N2CCN(c3cccc(Cl)c3)CC2)c1 | inactive: 23.5%
29 | Cc1[nH]n(-c2ccccc2)c(=O)c1/C=N/O | inactive: -14.8%
30 | CCn1c(-c2ccccc2)ccc(C#N)c1=O | inconclusive: -55.3%
31 | Cc1ccc(C)c(NC(=S)NC(NC(=O)OCc2ccccc2)C(Cl)(Cl)Cl)c1 (stereo unspecified) | inactive: -13.3%
32 | COC(=O)c1ccc(NC(=O)CN2CCN(c3ccc(Cl)cc3)CC2)cc1 | inactive: 5.76%
33 | O=C(CSc1nnc(-c2cccnc2)s1)Nc1cccc(C(=O)O)c1 | inconclusive: -46.4%
34 | CCCCCCOC(=O)C(C#N)c1nc2ccccc2nc1N1CCN(C)CC1 (stereo unspecified) | inconclusive: -58%
35 | O=C(CSc1ncccn1)N/N=C/c1cccc([N+](=O)[O-])c1 | inconclusive: -68.4%
36 | Cc1cccc(Nc2nnc(SCC(=O)NC3CCCc4ccccc43)s2)c1 (stereo unspecified) | inconclusive: -44.2%
37 | Cc1nc(C)c(C(=O)C2=C(O)C(=O)N(CCN3CCOCC3)C2c2cccnc2)s1 (stereo unspecified) | inconclusive: -51.2%
38 | Cc1noc(C)c1CSCC(=O)NC1=NCCS1 | inconclusive: -37.1%
39 | O=C(Nc1cccc2cccnc12)c1cccc(N2C(=O)CCC2=O)c1 | active: -100%
40 | COc1ccc(Br)cc1/C=N/NC(=O)c1nc(-c2ccccc2)n2c1CCCCC2 | inactive: 45.2%
41 | O=C(Cc1cccs1)N/N=C/C=C/c1ccco1 | inactive: 18.7%
42 | COc1ccccc1N1CCN(C(=O)c2cn(-c3ccccc3)nc2-c2cccnc2)CC1 | inconclusive: -47.7%
43 | CCOC(=O)CC1C(=O)NCCN1C(=O)c1cc2c(=O)n3cccc(C)c3nc2s1 (stereo unspecified) | inactive: 21.7%
44 | CCOC(=O)CSc1nc2sc3c(c2c(=O)[nH]1)CC(C)(CC)OC3 (stereo unspecified) | inactive: 17.5%
45 | COc1nc(N(C#N)CC(N)=O)nc(N2CCCC2)n1 | inconclusive: -38.1%
46 | O=C(CSc1nnc(Cc2ccccc2)n1-c1ccc(F)cc1)N1CCOCC1 | inactive: 14.6%

2 entries from above, with tabs.
Row	SMILES	activity change (PNC), negative = inhibition
41	O=C(Cc1cccs1)N/N=C/C=C/c1ccco1	inactive: 18.7%
46	O=C(CSc1nnc(Cc2ccccc2)n1-c1ccc(F)cc1)N1CCOCC1	inactive: 14.6%
